Experimental data: paper doi:10.1101/411173

Biological target: T1, His14-Sec61S353C (S. cerevisiae) (UniProt P32915)
T1 sequence: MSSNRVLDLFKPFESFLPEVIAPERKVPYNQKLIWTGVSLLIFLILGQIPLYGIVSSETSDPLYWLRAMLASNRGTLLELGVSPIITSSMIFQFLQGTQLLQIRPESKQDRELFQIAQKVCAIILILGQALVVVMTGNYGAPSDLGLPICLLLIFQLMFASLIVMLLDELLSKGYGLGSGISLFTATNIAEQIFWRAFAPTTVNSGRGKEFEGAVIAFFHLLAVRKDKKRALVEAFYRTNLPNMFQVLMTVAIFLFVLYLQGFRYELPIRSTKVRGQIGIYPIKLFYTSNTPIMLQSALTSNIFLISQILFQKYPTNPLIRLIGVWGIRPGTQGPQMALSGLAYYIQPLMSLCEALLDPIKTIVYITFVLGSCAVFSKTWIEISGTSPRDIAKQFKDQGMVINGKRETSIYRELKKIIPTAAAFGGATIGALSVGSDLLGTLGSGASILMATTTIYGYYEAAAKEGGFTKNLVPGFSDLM
Assay: cross-linking + affinity purification with mass spectrometry

B1: Mpd1 (protein, UniProt Q12404 22-318)
chain: QNFYDSDPHISELTPKSFDKAIHNTNYTSLVEFYAPWCGHCKKLSSTFRKAAKRLDGVVQVAAVNCDLNKNKALCAKYDVNGFPTLMVFRPPKIDLSKPIDNAKKSFSAHANEVYSGARTLAPIVDFSLSRIRSYVKKFVRIDTLGSLLRKSPKLSVVLFSKQDKISPVYKSIALDWLGKFDFYSISNKKLKQLTDMNPTYEKTPEIFKYLQKVIPEQRQSDKSKLVVFDADKDKFWEYEGNSINKNDISKFLRDTFSITPNEGPFSRRSEYIAYLKTGKKPIKKNHSSSGNKHDEL
Question: With B1 as the binder, how does the binding read?
Answer: binds

Results are given in words; binding and its absence hold for the method and conditions named. In cells and extracts the contact can be indirect. These calls come from enrichment with a bait or labelling near it, and not all partners need be listed. Where a sequence is shown, tags or fusion partners need not be part of it.
